Binding data for 2 substances are collected here from PMC7032732.

For this assay, the target named is T1, HA-Cdc4 (cdc4Δ::HA-CDC4 strain YMB10217) (S. cerevisiae) (UniProt P07834).
T1 sequence: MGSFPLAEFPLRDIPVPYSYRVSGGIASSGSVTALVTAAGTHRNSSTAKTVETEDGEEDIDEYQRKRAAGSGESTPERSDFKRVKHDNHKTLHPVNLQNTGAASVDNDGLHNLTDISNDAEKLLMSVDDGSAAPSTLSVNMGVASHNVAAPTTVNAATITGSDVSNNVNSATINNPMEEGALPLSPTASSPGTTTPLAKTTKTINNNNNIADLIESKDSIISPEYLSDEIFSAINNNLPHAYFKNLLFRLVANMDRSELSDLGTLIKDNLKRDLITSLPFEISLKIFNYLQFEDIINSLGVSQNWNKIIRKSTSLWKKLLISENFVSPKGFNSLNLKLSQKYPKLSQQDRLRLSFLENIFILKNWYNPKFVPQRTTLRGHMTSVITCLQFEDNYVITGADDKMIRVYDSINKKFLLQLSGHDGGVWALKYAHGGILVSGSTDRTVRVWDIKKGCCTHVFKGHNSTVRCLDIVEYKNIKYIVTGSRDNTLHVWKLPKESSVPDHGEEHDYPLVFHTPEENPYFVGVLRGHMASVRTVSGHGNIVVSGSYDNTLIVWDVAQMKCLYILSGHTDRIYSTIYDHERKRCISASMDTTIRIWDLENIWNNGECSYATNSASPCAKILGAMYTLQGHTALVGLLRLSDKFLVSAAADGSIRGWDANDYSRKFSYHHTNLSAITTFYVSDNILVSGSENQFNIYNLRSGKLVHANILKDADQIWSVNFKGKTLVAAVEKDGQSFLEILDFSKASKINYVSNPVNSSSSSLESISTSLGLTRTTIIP
In words: co-IP; IP with anti-HA agarose from whole cell extracts of yeast grown in selective glucose medium at 25°C; all tagged proteins from their native promoters; extraction buffer 40mM Hepes pH7.5, 350mM NaCl, 0.1% Tween, 10% glycerol; 4°C overnight; WT strains, also cdc4-1 (Met30 with Cse4 not affected) and met30-6 (Cdc4 with Cse4 greatly reduced, restored by plasmid-borne MET30 or met30ΔD).

These are yes or no findings as the source states them, for the method shown. Binding seen in cells or lysates may run through a third protein. Binding calls can cover weak binding; strength is not graded here. Tags and fused reporters may be left off the sequences shown.

In the case of “Myc-met30ΔD (Δ124–182 aa, pMB1830) (S. cerevisiae) (domain or fragment)”, the binding entry is listed as “binds”.
Take “Myc-met30ΔF-box (Δ187–227 aa, pK680) (S. cerevisiae) (domain or fragment)”: the binding result is “binds”.
